The target in this assay is T1, native KCC2 (K+-Cl- cotransporter KCC2) (mouse (endogenous in brain)) (UniProt Q91V14).
T1 sequence: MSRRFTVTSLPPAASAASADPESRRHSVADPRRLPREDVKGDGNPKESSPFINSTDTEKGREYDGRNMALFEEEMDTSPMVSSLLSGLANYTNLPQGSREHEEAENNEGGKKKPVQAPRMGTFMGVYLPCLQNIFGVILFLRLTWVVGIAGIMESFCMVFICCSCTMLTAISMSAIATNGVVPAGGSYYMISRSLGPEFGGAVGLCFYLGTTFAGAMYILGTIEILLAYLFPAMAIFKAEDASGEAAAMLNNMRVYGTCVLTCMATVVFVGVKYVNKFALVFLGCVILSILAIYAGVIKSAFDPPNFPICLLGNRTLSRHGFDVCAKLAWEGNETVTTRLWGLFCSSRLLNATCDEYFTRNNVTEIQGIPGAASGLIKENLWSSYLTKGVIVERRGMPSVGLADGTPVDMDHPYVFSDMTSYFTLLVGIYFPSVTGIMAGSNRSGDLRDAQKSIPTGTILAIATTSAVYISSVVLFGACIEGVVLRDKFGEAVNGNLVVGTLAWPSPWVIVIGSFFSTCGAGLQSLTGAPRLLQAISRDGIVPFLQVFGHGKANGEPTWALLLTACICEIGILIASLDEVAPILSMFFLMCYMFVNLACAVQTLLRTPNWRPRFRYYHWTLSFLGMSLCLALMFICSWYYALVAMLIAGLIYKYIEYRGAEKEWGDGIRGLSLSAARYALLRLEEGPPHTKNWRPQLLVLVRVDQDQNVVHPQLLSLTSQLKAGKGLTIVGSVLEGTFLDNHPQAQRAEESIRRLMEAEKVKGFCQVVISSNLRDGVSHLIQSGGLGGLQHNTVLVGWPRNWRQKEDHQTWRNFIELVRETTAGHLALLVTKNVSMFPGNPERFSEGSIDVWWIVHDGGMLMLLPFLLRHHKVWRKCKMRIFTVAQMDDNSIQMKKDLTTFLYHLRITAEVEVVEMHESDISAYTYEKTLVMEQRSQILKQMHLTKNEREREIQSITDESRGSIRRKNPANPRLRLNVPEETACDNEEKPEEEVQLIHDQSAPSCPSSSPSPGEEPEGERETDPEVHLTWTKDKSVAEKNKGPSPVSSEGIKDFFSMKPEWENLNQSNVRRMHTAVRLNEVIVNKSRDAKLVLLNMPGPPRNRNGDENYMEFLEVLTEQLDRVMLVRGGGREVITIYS
The experiment in a line: affinity purification with mass spectrometry; anti-KCC2 antibodies (C-terminal, N-terminal KCC2b, pS940) cross-linked with DMP to GammaBind IgG beads; C12E9-solubilised whole-brain membrane fractions of P5 and P50 mice; 4 hr, 4°C; parallel IgG/IgY controls.

Results are given in words; binding and its absence hold for the method and conditions named. Binding seen in cells or lysates may run through a third protein. Here binding means that the protein was enriched with, or labelled near, the bait; the list need not be complete.

B1: FXYD7 (protein, UniProt P59648 1-80)
chain: MATPTQSPTNVPEETDPFFYDYATVQTVGMTLATIMFVLGIIIILSKKVKCRKADSRSESPTCKSCKSELPSSAPGGGGV
On to B1, for which the binding entry is “binds”.

B2: CRTC1 (protein, UniProt Q68ED7 1-630)
chain: MATSNNPRKFSEKIALHNQKQAEETAAFEEVMKDLSLTRAARLQLQKSQYLQLGPSRGQYYGGSLPNVNQIGSSSVDLAFQTPFQSSGLDTSRTTRHHGLVDRVYRERGRLGSPHRRPLSVDKHGRQADSCPYGTVYLSPPADTSWRRTNSDSALHQSTMTPSQAESFTGGSQDAHQKRVLLLTVPGMEDTGAETDKTLSKQSWDSKKAGSRPKSCEVPGINIFPSADQENTTALIPATHNTGGSLPDLTNIHFPSPLPTPLDPEEPPFPALTSSSSTGSLAHLGVGGAGQGMNTPSSSPQHRPAVVSPLSLSTEARRQQAQQVSPTLSPLSPITQAVAMDALSLEQQLPYAFFTQTGSQQPPPQPQPPPPPPPVSQQQPPPPQVSVGLPQGGPLLPSASLTRGPQLPPLSVTVPSTLPQSPTENPGQSPMGIDATSAPALQYRTSAGSPATQSPTSPVSNQGFSPGSSPQHTSTLGSVFGDAYYEQQMTARQANALSRQLEQFNMMENAISSSSLYNPGSTLNYSQAAMMGLSGSHGGLQDPQQLGYTGHGGIPNIILTVTGESPPSLSKELSSTLAGVSDVSFDSDHQFPLDELKIDPLTLDGLHMLNDPDMVLADPATEDTFRMDRL
On to B2, for which the binding result is recorded as “binds”.

B3: NARS (protein, UniProt Q8BP47 1-559)
chain: MSSEVIRGTAEMVLAELYVSDREGNDATGDGTKEKPFKTGLKALMTVGKEPFPTIYVDSQKENERWDVISKSQMKNIKKMWHREQMKNDSREKKEAEDNLRREKNLEEAKKIIIKNDPSLPEPACVKISALEGYRGQRVKVFGWVHRLRRQGKNLMFLVLRDGTGYLQCVLSDDLCQCYNGVVLSTESSVAVYGTLNLTPKGKQAPGGHELSCDFWELVGLAPAGGADNLINEESDVDVQLNNRHMMIRGENMSKILKARSMITRCFRDHFFDRGYCEVTTPTLVQTQVEGGATLFKLDYFGEEAFLTQSSQLYLETCLPALGDVFCIAQSYRAEQSRTRRHLAEFTHVEAECPFLTFEDLLNRLEDLVCDVVDRVLKSPVASIVYELNPNFKPPKRPFRRMNYSDAIEWLKEHDVKKEDGTFYEFGDDIPEAPERLMTDTINEPILLCRFPVEIKSFYMQRCPEDPRLTESVDVLMPNVGEIVGGSMRSWDSEEILEGYKREGIDPAPYYWYTDQRKYGTCPHGGYGLGLERFLSWILNRYHIRDVCLYPRFLQRCRP
Consider B3, for which the binding result was “binds”.

B4: CTNNA2 (protein, UniProt Q61301 1-953)
chain: MTSATSPIILKWDPKSLEIRTLTVERLLEPLVTQVTTLVNTSNKGPSGKKKGRSKKAHVLAASVEQATQNFLEKGEQIAKESQDLKEELVAAVEDVRKQGETMRIASSEFADDPCSSVKRGTMVRAARALLSAVTRLLILADMADVMRLLSHLKIVEEALEAVKNATNEQDLANRFKEFGKEMVKLNYVAARRQQELKDPHCRDEMAAARGALKKNATMLYTASQAFLRHPDVAATRANRDYVFKQVQEAIAGISSAAQATSPTDEAKGHTGIGELAAALNEFDNKIILDPMTFSEARFRPSLEERLESIISGAALMADSSCTRDDRRERIVAECNAVRQALQDLLSEYMNNTGRKEKGDPLNIAIDKMTKKTRDLRRQLRKAVMDHISDSFLETNVPLLVLIEAAKSGNEKEVKEYAQVFREHANKLVEVANLACSISNNEEGVKLVRMAATQIDSLCPQVINAALTLAARPQSKVAQDNMDVFKDQWEKQVRVLTEAVDDITSVDDFLSVSENHILEDVNKCVIALQEGDVDTLDRTAGAIRGRAARVIHIINAEMENYEAGVYTEKVLEATKLLSETVMPRFAEQVEVAIEALSANVPQPFEENEFIDASRLVYDGVRDIRKAVLMIRTPEELEDDSDFEQEDYDVRSRTSVQTEDDQLIAGQSARAIMAQLPQEEKAKIAEQVEIFHQEKSKLDAEVAKWDDSGNDIIVLAKQMCMIMMEMTDFTRGKGPLKNTSDVINAAKKIAEAGSRMDKLARAVADQCPDSACKQDLLAYLQRIALYCHQLNICSKVKAEVQNLGGELIVSGTGVQSTFTTFYEVDCDVIDGGRASQLSTHLPTCAEGAPIGSGSSDSSMLDSATSLIQAAKNLMNAVVLTVKASYVASTKYQKVYGTAAVNSPVVSWKMKAPEKKPLVKREKPEEFQTRVRRGSQKKHISPVQALSEFKAMDSF
In the case of B4, the binding result is “binds”.

B5: PRRT2 (protein, UniProt E9PUL5 1-346)
chain: MAASSSQVSEMKGVEDSSKTQTEGPRHSEEGLGPVQVVAEIPDQPEALQPGPGITAAPVDSGPKAELAPETTETPVETPETVQATDLSLNPEEGSKASPSPSPSEARQEPASKPDVNRETAAEEGSEPQSTAPPEPTSEPAFQINTQSDPQPTSQPPPKPPLQAEPPTQEDPTTEVLTESTGEKQENGAVVPLQAGDGEEGPAPQPHSPPSTKTPPANGAPPRVLQKLVEEDRIGRAHGGHPGSPRGSLSRHPSSQLAGPGVEGGEGTQKPRDYIILAILSCFCPMWPVNIVAFAYAVMSRNSLQQGDVDGAQRLGRVAKLLSIVALVGGVLIIIASCVINLGVYK
Take B5: the binding entry is “binds”.

B6: GRID2 (protein, UniProt Q61625 24-1007)
chain: DSIIHIGAIFDESAKKDDEVFRTAVGDLNQNEEILQTEKITFSVTFVDGNNPFQAVQEACELMNQGILALVSSIGCTSAGSLQSLADAMHIPHLFIQRSTAGTPRSGCGLTRSNRNDDYTLSVRPPVYLNEVILRVVTEYAWQKFIIFYDSEYDIRGIQEFLDKVSQQGMDVALQKVENNINKMITTLFDTMRIEELNRYRDTLRRAILVMNPATAKSFISEVVETNLVAFDCHWIIINEEINDVDVQELVRRSIGRLTIIRQTFPVPQNISQRCFRGNHRISSSLCDPKDPFAQNMEISNLYIYDTVLLLANAFHKKLEDRKWHSMASLSCIRKNSKPWQGGRSMLETIKKGGVNGLTGDLEFGENGGNPNVHFEILGTNYGEELGRGVRKLGCWNPVTGLNGSLTDKKLENNMRGVVLRVVTVLEEPFVMVSENVLGKPKKYQGFSIDVLDALSNYLGFNYEIYVAPDHKYGSPQEDGTWNGLVGELVFKRADIGISALTITPDRENVVDFTTRYMDYSVGVLLRRAEKTVDMFACLAPFDLSLWACIAGTVLLVGLLVYLLNWLNPPRLQMGSMTSTTLYNSMWFVYGSFVQQGGEVPYTTLATRMMMGAWWLFALIVISSYTANLAAFLTITRIESSIQSLQDLSKQTDIPYGTVLDSAVYQHVRMKGLNPFERDSMYSQMWRMINRSNGSENNVLESQAGIQKVKYGNYAFVWDAAVLEYVAINDPDCSFYTVGNTVADRGYGIALQHGSPYRDVFSQRILELQQSGDMDILKHKWWPKNGQCDLYSSVDAKQKGGALDIKSLAGVFCILAAGIVLSCLIAVLETWWSRRKGSRVPSKEDDKEIDLEHLHRRVNSLCTDDDSPHKQFSTSSIDLTPLDIDTLPTRQALEQISDFRNTHITTTTFIPEQIQTLSRTLSAKAASGFAFGSVPEHRTGPFRHRAPNGGFFRSPIKTMSSIPYQPTPTLGLNLGNDPDRGTSI
On to B6, for which the binding entry is “binds”.

B7: FLII (protein, UniProt Q9JJ28 1-1271)
chain: MEATGVLPFVRGVDLSGNDFKGGYFPENVKAMTSLRWLKLNRTGLCYLPEELAALQKLEHLSVSHNHLTTLHGELSSLPSLRAIVARANSLKNSGVPDDIFKLDDLSVLDLSHNQLTECPRELENAKNMLVLNLSHNGIDSIPNQLFINLTDLLYLDLSENRLESLPPQMRRLVHLQTLVLNGNPLLHAQLRQLPAMMALQTLHLRNTQRTQSNLPTSLEGLSNLSDVDLSCNDLTRVPECLYTLPSLRRLNLSSNQIAELSLCIDQWVHLETLNLSRNQLTSLPSAICKLTKLKKLYLNSNKLDFDGLPSGIGKLTSLEEFMAANNNLELIPESLCRCPKLKKLVLNKNRLVTLPEAIHFLTEIQVLDVRENPSLVMPPKPADRTAEWYNIDFSLQNQLRLAGASPATVAAAAAVGSGSKDPLARKMRLRRRKDSAQDVQAKQVLKGMSDVAQEKNKNQEESIDARAPGGKVRRWDQGLEKPRLDYSEFFTEDVGQLPGLTIWQIENFVPVLVEEAFHGKFYEADCYIVLKTFLDDSGSLNWEIYYWIGGEATLDKKACSAIHAVNLRNYLGAECRTVREEMGDESEEFLQVFDNDISYIEGGTASGFYTVEDTHYVTRMYRVYGKKNIKLEPVPLKGSSLDPRFVFLLDQGLDIYVWRGAQATLSNTTKARLFAEKINKNERKGKAEITLLVQGQEPPGFWDVLGGEPSEIKNHVPDDFWPPQPKLYKVGLGLGYLELPQINYKLSVEHKKRPKVELMPGMRLLQSLLDTRCVYILDCWSDVFIWLGRKSPRLVRAAALKLGQELCGMLHRPRHTVVSRSLEGTEAQVFKAKFKNWDDVLTVDYTRNAEAVLQGQGLSGKVKRDTEKTDQMKADLTALFLPRQPPMPLAEAEQLMEEWNEDLDGMEGFVLEGRKFTRLPEEEFGHFYTQDCYVFLCRYWVPVEYEEEEKTEDKEGKASAEAREGEEAAAEAEEKQPEEDFQCIVYFWQGREASNMGWLTFTFSLQKKFESLFPGKLEVVRMTQQQENPKFLSHFKRKFIIHRGKRKVTQGTLQPTLYQIRTNGSALCTRCIQINTDSSLLNSEFCFILKVPFESEDNQGIVYAWVGRASDPDEAKLAEDILNTMFDASYSKQVINEGEEPENFFWVGIGAQKPYDDDAEYMKHTRLFRCSNEKGYFAVTEKCSDFCQDDLADDDIMLLDNGQEVYMWVGTQTSQVEIKLSLKACQVYIQHTRSKEHERPRRLRLVRKGNEQRAFTRCFHAWSTFRQAPA
Regarding B7, the binding entry is “binds”.

(Values after article PMC5640428.)
